From publication PMC5716712
Results are given in words; binding and its absence hold for the method and conditions named. For part of these data: In cells and extracts the contact can be indirect. Some results given as binding are weak or reduced against the parent protein; the word gives no strength. For part of these data: Tags and fused reporters may be left off the sequences shown.

Chains of the proteins cited; added tags and fusions are not shown.
UniProt P60484: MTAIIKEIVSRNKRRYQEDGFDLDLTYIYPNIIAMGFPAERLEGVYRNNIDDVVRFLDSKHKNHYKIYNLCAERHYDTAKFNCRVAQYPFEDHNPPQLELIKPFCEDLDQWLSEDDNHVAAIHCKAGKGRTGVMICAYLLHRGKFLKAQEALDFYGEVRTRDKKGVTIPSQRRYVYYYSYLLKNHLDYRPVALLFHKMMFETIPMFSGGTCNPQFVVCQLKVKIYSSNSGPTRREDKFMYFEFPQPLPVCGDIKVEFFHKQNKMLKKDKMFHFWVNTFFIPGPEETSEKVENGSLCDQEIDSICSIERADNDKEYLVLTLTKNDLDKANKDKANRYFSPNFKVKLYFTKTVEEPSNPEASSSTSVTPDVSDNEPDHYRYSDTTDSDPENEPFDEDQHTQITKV

T1: MAD1 (human (endogenous in HCT116)) (UniProt Q9Y6D9)
T1 sequence: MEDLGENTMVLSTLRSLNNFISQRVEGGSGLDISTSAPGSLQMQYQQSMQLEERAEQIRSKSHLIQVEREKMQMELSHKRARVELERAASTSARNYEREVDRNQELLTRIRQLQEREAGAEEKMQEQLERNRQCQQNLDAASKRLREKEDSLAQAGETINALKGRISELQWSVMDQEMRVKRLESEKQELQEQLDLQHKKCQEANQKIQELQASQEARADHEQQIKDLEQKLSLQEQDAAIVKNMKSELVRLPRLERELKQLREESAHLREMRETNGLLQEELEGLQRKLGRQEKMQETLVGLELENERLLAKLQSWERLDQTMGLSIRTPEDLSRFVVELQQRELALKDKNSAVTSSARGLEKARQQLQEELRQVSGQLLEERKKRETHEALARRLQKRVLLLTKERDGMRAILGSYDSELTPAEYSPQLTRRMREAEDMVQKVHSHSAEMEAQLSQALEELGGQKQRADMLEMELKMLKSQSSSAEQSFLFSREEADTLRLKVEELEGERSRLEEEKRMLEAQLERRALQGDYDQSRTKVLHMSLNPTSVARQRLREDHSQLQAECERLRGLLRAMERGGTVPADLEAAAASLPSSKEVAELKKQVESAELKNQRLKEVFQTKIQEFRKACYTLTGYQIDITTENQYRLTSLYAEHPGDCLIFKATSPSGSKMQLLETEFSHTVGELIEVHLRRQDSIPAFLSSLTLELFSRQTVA

T2: S-HA-MAD1 (UniProt Q9Y6D9)
T2 sequence: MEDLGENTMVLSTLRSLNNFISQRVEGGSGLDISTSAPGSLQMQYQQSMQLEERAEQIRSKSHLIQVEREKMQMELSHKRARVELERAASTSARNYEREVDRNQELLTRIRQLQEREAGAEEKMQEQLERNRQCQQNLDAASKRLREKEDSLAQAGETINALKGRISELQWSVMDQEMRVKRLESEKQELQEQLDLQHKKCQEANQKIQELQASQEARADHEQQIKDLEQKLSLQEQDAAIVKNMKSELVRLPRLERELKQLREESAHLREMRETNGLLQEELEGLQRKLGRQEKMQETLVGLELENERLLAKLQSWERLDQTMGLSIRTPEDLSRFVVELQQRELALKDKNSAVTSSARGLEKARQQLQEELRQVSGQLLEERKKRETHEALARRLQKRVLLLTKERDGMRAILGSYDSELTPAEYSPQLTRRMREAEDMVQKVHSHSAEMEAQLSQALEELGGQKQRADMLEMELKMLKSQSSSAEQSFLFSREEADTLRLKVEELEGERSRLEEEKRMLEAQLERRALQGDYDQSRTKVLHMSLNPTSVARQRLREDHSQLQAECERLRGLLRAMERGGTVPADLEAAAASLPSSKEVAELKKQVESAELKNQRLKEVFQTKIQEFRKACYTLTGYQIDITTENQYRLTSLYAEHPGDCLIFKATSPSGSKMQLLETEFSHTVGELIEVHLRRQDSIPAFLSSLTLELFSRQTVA


Tests used:
[1] = target: PTEN (human (endogenous in HCT116)) (UniProt P60484); test: condition: only M phase cells (mitotic shake off after 12 hours of nocodazole treatment); co-IP; endogenous PTEN or MAD1 immunoprecipitated from M phase HCT116 cells (mitotic shake off after 12 hours of nocodazole treatment) and immunoblotted for the other
[2] = target: T1, MAD1 (human (endogenous in HCT116)); test: immunoblot of extracts prepared without heat treatment; MAD1 blotted in interphase and mitotic extracts of WT and PTEN-/- HCT116 cells; MAD1 protein complexes marked
[3] = target: PTEN (human (endogenous in HCT116)) (UniProt P60484); test: co-IP; endogenous PTEN or MAD1 immunoprecipitated from HCT116 cell extracts and immunoblotted for the other; also from G2 phase cells (12 hours of thymidine block and 8 hours of release)
S-HA-PTEN [4] = target: S-HA-PTEN (UniProt P60484); test: pull-down; S-HA-PTEN and FLAG-MAD1 transfected into HCT116 cells; PTEN pulled down by S-tag beads, MAD1 detected with a FLAG antibody; without nocodazole
S-HA-MAD1 = target: T2, S-HA-MAD1; test: pull-down; S-HA-MAD1 and FLAG-MAD1 co-transfected into PTEN-/- HCT116 cells with or without FLAG-PTEN; S-HA-MAD1 pulled down by S-tag beads, blotted with indicated antibodies
S-HA-PTEN [5] = target: S-HA-PTEN (UniProt P60484); test: condition: only with nocodazole treatment (100 ng/ml); pull-down; S-HA-PTEN and FLAG-MAD1 transfected into HCT116 cells; PTEN pulled down by S-tag beads, MAD1 detected with a FLAG antibody; with nocodazole treatment

binding [1] | binding [2] | binding [3] | binding (S-HA-PTEN [4]) | binding (S-HA-MAD1) | binding (S-HA-PTEN [5]) | Binder
no binding | binds | binds | – | – | – | MAD1 (protein, UniProt Q9Y6D9 1-718) MEDLGENTMVLSTLRSLNNFISQRVEGGSGLDISTSAPGSLQMQYQQSMQLEERAEQIRSKSHLIQVEREKMQMELSHKRARVELERAASTSARNYEREVDRNQELLTRIRQLQEREAGAEEKMQEQLERNRQCQQNLDAASKRLREKEDSLAQAGETINALKGRISELQWSVMDQEMRVKRLESEKQELQEQLDLQHKKCQEANQKIQELQASQEARADHEQQIKDLEQKLSLQEQDAAIVKNMKSELVRLPRLERELKQLREESAHLREMRETNGLLQEELEGLQRKLGRQEKMQETLVGLELENERLLAKLQSWERLDQTMGLSIRTPEDLSRFVVELQQRELALKDKNSAVTSSARGLEKARQQLQEELRQVSGQLLEERKKRETHEALARRLQKRVLLLTKERDGMRAILGSYDSELTPAEYSPQLTRRMREAEDMVQKVHSHSAEMEAQLSQALEELGGQKQRADMLEMELKMLKSQSSSAEQSFLFSREEADTLRLKVEELEGERSRLEEEKRMLEAQLERRALQGDYDQSRTKVLHMSLNPTSVARQRLREDHSQLQAECERLRGLLRAMERGGTVPADLEAAAASLPSSKEVAELKKQVESAELKNQRLKEVFQTKIQEFRKACYTLTGYQIDITTENQYRLTSLYAEHPGDCLIFKATSPSGSKMQLLETEFSHTVGELIEVHLRRQDSIPAFLSSLTLELFSRQTVA
– | – | – | binds | binds | no binding | FLAG-MAD1 (protein, UniProt Q9Y6D9 1-718) MEDLGENTMVLSTLRSLNNFISQRVEGGSGLDISTSAPGSLQMQYQQSMQLEERAEQIRSKSHLIQVEREKMQMELSHKRARVELERAASTSARNYEREVDRNQELLTRIRQLQEREAGAEEKMQEQLERNRQCQQNLDAASKRLREKEDSLAQAGETINALKGRISELQWSVMDQEMRVKRLESEKQELQEQLDLQHKKCQEANQKIQELQASQEARADHEQQIKDLEQKLSLQEQDAAIVKNMKSELVRLPRLERELKQLREESAHLREMRETNGLLQEELEGLQRKLGRQEKMQETLVGLELENERLLAKLQSWERLDQTMGLSIRTPEDLSRFVVELQQRELALKDKNSAVTSSARGLEKARQQLQEELRQVSGQLLEERKKRETHEALARRLQKRVLLLTKERDGMRAILGSYDSELTPAEYSPQLTRRMREAEDMVQKVHSHSAEMEAQLSQALEELGGQKQRADMLEMELKMLKSQSSSAEQSFLFSREEADTLRLKVEELEGERSRLEEEKRMLEAQLERRALQGDYDQSRTKVLHMSLNPTSVARQRLREDHSQLQAECERLRGLLRAMERGGTVPADLEAAAASLPSSKEVAELKKQVESAELKNQRLKEVFQTKIQEFRKACYTLTGYQIDITTENQYRLTSLYAEHPGDCLIFKATSPSGSKMQLLETEFSHTVGELIEVHLRRQDSIPAFLSSLTLELFSRQTVA
